Assay results taken from publication PMC4669745.
These are yes or no findings as the source states them, for the method shown. Binding seen in cells or lysates may run through a third protein. Some binding calls cover weakened binding; strength is not graded here.

Chains of the proteins cited; added tags and fusions are not shown.
UniProt Q07812: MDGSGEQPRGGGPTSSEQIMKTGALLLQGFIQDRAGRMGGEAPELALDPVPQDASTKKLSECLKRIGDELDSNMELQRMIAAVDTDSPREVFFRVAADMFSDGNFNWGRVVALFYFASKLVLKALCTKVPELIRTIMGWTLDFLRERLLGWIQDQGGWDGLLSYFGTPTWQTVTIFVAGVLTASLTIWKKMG

B1: DRAM1 (DNA damage-regulated autophagy modulator 1) (protein, UniProt Q8N682 1-238)
chain: MLCFLRGMAFVPFLLVTWSSAAFIISYVVAVLSGHVNPFLPYISDTGTTPPESGIFGFMINFSAFLGAATMYTRYKIVQKQNQTCYFSTPVFNLVSLVLGLVGCFGMGIVANFQELAVPVVHDGGALLAFVCGVVYTLLQSIISYKSCPQWNSLSTCHIRMVISAVSCAAVIPMIVCASLISITKLEWNPREKDYVYHVVSAICEWTVAFGFIFYFLTFIQDFQSVTLRISTEINGDI
B2: DRAM1 expressed from DRAM1-pcDNA4 (protein, UniProt Q8N682 1-238)
chain: B1 chain

Molecular target: BAX (human (endogenous in HeLa)) (UniProt Q07812)
Experiment: co-IP; HeLa cell lysates (untransfected or vector, or DRAM1-pcDNA4 for 48 h; also after serum-free medium for 4 h) incubated with 2 ug antibody (anti-BAX or anti-DRAM1) overnight at 4 °C, IgG/IgA beads, washed three times in 1x PBS pH 7.4, immunoblot

binding	Binder
binds	B1
binds	B2
